{"source": "paper PMC4608764", "about": "“The Q Motif Is Involved in DNA Binding but Not ATP Binding in ChlR1 Helicase” (PLoS ONE, 2015)", "key": {"[1]": {"tested_on": "T1, ChlR1-Q23A (Homo sapiens)", "T1 sequence (looked up)": "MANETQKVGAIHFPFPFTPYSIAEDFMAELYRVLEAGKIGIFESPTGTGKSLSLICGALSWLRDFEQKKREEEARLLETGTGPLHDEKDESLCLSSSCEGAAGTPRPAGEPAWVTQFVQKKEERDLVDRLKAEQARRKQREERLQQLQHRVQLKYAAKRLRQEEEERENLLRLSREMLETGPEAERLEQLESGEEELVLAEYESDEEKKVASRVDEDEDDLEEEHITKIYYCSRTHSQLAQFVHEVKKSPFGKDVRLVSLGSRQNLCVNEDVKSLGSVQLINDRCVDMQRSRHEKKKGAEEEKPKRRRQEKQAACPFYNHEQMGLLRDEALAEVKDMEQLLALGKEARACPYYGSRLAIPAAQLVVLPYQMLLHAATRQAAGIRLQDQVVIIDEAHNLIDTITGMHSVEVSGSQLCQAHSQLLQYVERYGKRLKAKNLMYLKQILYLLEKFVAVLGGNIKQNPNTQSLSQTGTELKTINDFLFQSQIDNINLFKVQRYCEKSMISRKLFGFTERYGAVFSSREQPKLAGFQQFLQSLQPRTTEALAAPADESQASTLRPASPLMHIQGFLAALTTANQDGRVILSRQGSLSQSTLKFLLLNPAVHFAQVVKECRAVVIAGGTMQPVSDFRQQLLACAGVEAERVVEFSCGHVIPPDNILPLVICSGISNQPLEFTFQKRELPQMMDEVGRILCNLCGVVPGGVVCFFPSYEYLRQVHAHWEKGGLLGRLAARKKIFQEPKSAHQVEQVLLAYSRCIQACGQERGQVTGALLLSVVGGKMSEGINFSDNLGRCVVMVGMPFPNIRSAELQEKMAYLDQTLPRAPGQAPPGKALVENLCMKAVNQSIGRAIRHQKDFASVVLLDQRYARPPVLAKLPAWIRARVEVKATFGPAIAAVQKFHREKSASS", "assay": "EMSA", "conditions": "5 mM Mg2+, no ATP, abolished in the standard range, slight binding at 96 nM, EMSA: 40 mM Tris-HCl pH 7.4, 25 mM KCl, 5 mM MgCl2, 2 mM DTT, 2% glycerol, 100 ng/uL BSA, 0.5 nM DNA, room temp 30 min, recombinant protein, residues 1-906, protein details: FLAG, label: 32P (5' end)"}, "ChlR1-WT (Homo sapiens)": {"tested_on": "T2, ChlR1-WT (Homo sapiens)", "T2 sequence (looked up)": "T1 sequence (looked up) with A23Q", "assay": "EMSA", "conditions": "AMP-PNP preincubation, no stimulation of DNA binding; EMSA: 40 mM Tris-HCl pH 7.4, 25 mM KCl, 5 mM MgCl2, 2 mM DTT, 2% glycerol, 100 ng/uL BSA, no ATP, 0.5 nM DNA, room temp 30 min; recombinant protein; residues 1-906; protein details: FLAG; label: 32P (5' end)"}}, "note": "Numbering of substitutions follows the chain as printed. For some assays here: The comparison behind a weaker result is the experiment's own reference, which may not be listed here. Protein sequences can lack the tags named with them. For some assays here: For at least one entry, the source does not settle the construct or the ends of the probe. For some assays here: At least one verdict was read from the data and is not stated in words by the source."}
{"sequence": "TTTTTTTTTTTTTTTTTTTTTTCCCAGTAAAACGACGGCCAGTGC / GCACTGGCCGTCGTTTTACGGTCGTGACTGGGAAAACCCTGGCG [Forked duplex (DC26/TSTEM25)]", "values": [{"measurement": "binding result", "setting": "[1]", "value": "binds more weakly"}, {"measurement": "binding result", "setting": "ChlR1-WT (Homo sapiens)", "value": "binds"}]}
